Test results as given in PubChem BioAssay AID2685 (National Center for Advancing Translational Sciences (NCATS), 2010).
This is one part of the list. The main result of the screen is listed elsewhere. These columns were measured beside it and carry no call. Compounds called inactive in the main read-out are mostly missing here. Words in brackets tell the shape of the fitted curve; partial curves, single points and poor fits give uncertain potencies.

Assay: qHTS Assay for Lipid Storage Modulators in Drosophila S3 Cells;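 on cell number change: cells counted by Cell Tracker Red CMTPX staining in the red channel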
Settings: BODIPY lipid droplet fluorescence, 18-24 h; for cell number change: measured here: cell count max response, cells fed with added oleic acid
How it was run: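 Drosophila S3 cells got compounds at several concentrations plus oleic acid (400 uM solution). Laser-scanning cytometry with 488 nm excitation read lipid droplets at 500-530 nm and cells at 575-640 nm. Percent activity was relative to 20 uM Triacsin C.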

[1] = measured here: cell number channel AC50, cells fed with added oleic acid
[2] = measured here: lipid fluorescence (Fed channel) AC50, cells fed with added oleic acid

Compound | cell number change [%] | AC50 [1] | AC50 [2]
O=C(C1CC(=O)N(c2ccccc2)C1)N1CCC(c2nc3ccccc3[nH]2)CC1 (centres undefined) | 24.9 |  | 
CSc1sc(C(=O)O)c(C)c1C(C)=O |  | 4.61 µM [falling, single point] | 
N#Cc1cn(-c2ccccc2)nc1-c1ccc2c(c1)OCCO2 | 4.96 |  | 6.51 µM [rising, single point]
Cc1cccc(C(=O)NCCCN2CCCC2=O)c1 | -79.8 | 29.1 µM [falling, single point] | 
O=[N+]([O-])c1cc(S(=O)(=O)C(F)(F)F)ccc1Sc1nc2ccccc2s1 | -88.7 | 29.1 µM [falling, single point] | 29.1 µM [falling, single point]
CS(=O)(=O)Nc1ccc2c(c1)C(=O)OC2 | -9.39 |  | 29.1 µM [falling, single point]
CN1CCCCCC1=Nc1ccccc1C#N | 5.91 |  | 6.51 µM [falling, single point]
O=C1C(C2=C(O)c3ccccc3C2=O)=Nc2ccccc21 | -0.276 |  | 2.91 µM [falling, single point]
O=[N+]([O-])c1ccc(C2Nc3cccc4cccc(c34)N2)cc1 | -28.1 |  | 29.1 µM [falling, single point]
CC(C)N(C(=O)COC(=O)c1ccccc1C(=O)c1ccc(Cl)c([N+](=O)[O-])c1)C(C)C | -42.1 | 0.58 µM [falling, full curve] | 1.3 µM [falling, full curve]
COc1ccc(Br)c(C(=O)Nc2nc3ccccc3[nH]2)c1 | 38.2 | 13 µM [rising, partial curve, poor fit] | 
CSc1nccc(Oc2cccc(C#N)c2)n1 | -57.4 | 23.1 µM [falling, single point] | 18.4 µM [falling, single point]
C[C@@]12CC(=O)NC1N(C(=O)c1cccc(C(F)(F)F)c1)C(c1ccccc1OC(=O)c1cccc(C(F)(F)F)c1)C2 (some centres undefined) | -112 | 2.31 µM [rising, partial curve] | 6.51 µM [rising, single point]
O=C(CCN1C(=O)[C@@H]2Cc3ccccc3CN2C1=O)NCc1ccc(Cl)cc1 |  |  | 2.31 µM [rising, single point]
CCOc1ccc(N2C(=O)CC(SCC(=O)O)C2=O)cc1 (centres undefined) | -16.7 |  | 16.4 µM [falling, single point]
CSc1nnc(C(C)(C)C)c(=O)n1/N=C/c1ccc(Cl)cc1 | 2.67 | 0.184 µM [rising, full curve, poor fit] | 6.51 µM [rising, partial curve, poor fit]

2 compounds from above, showing only AC50 [1] and cell number change [%].
Compound | AC50 [1] | cell number change [%]
Cc1cccc(C(=O)NCCCN2CCCC2=O)c1 | 29.1 µM [falling, single point] | -79.8
O=[N+]([O-])c1cc(S(=O)(=O)C(F)(F)F)ccc1Sc1nc2ccccc2s1 | 29.1 µM [falling, single point] | -88.7
